# Results are given in words; binding and its absence hold for the method and conditions named. Some results given as binding are weak or reduced against the parent protein; the word gives no strength.
# B1: NCLD04 STAR (protein)
# beta: DVQLQESGGGLVQPGGSLRLSCTASGLTFNDYAVSWLRQAPGKEREFVATIRGSGGVTNYGASAEGRFIISRENAENTVYLQMNSLKSEDTAVYYCNARPLFGWSEEYWGQGTQVTVSSEDLRNVTPPKVSLFEPSKAEIANKQKATLVCLARGFFPDHVELSWWVNGKEVHSGVCTDPQAYKESNYSYCLSSRLRVSATFWHNPRNHFRCQVQFHGLSEEDKWPEGSPKPVTQNISAEAWGRADCGITSASYQQGVLSATILYEILLGKATLYAVLVSTLVVMAMVKRKNS
# alpha: DIQNPEPAVYQLKDPRSQDSTLCLFTDFDSQINVPKTMESGTFITDKCVLDMKAMDSKSNGAIAWSNQTSFTCQDIFKETNATYPSSDVPCDATLTEKSFETDMNLNFQNLLVIVLRILLLKVAGFNLLMTLRLWGGGGSGGGGSGGGGSRRDQRLPPDAHKPPGGGSFRTPIQEEQADAHSTLAKI
# B2: NCLD04β-NCR802α STAR (protein)
# beta: DVQLQESGGGLVQPGGSLRLSCTASGLTFNDYAVSWLRQAPGKEREFVATIRGSGGVTNYGASAEGRFIISRENAENTVYLQMNSLKSEDTAVYYCNARPLFGWSEEYWGQGTQVTVSSEDLRNVTPPKVSLFEPSKAEIANKQKATLVCLARGFFPDHVELSWWVNGKEVHSGVCTDPQAYKESNYSYCLSSRLRVSATFWHNPRNHFRCQVQFHGLSEEDKWPEGSPKPVTQNISAEAWGRADCGITSASYQQGVLSATILYEILLGKATLYAVLVSTLVVMAMVKRKNSRRDQRLPPDAHKPPGGGSFRTPIQEEQADAHSTLAKI
# alpha: DVQLQESGGGLVQPGGSLRLSCAASGFTFNYYHMGWVRQAPGKGPEWVSSIRSNADDTMYADSVKGRFTISRDNAKNTLYLQMNSLKAEDTALYSCARISAWRRPKEYDYLGQGTQVTVSSDIQNPEPAVYQLKDPRSQDSTLCLFTDFDSQINVPKTMESGTFITDKCVLDMKAMDSKSNGAIAWSNQTSFTCQDIFKETNATYPSSDVPCDATLTEKSFETDMNLNFQNLLVIVLRILLLKVAGFNLLMTLRLWSSRRDQRLPPDAHKPPGGGSFRTPIQEEQADAHSTLAKI
# B3: NCR802β-NCLD04α STAR (protein)
# beta: DVQLQESGGGLVQPGGSLRLSCAASGFTFNYYHMGWVRQAPGKGPEWVSSIRSNADDTMYADSVKGRFTISRDNAKNTLYLQMNSLKAEDTALYSCARISAWRRPKEYDYLGQGTQVTVSSEDLRNVTPPKVSLFEPSKAEIANKQKATLVCLARGFFPDHVELSWWVNGKEVHSGVCTDPQAYKESNYSYCLSSRLRVSATFWHNPRNHFRCQVQFHGLSEEDKWPEGSPKPVTQNISAEAWGRADCGITSASYQQGVLSATILYEILLGKATLYAVLVSTLVVMAMVKRKNSRRDQRLPPDAHKPPGGGSFRTPIQEEQADAHSTLAKI
# alpha: DVQLQESGGGLVQPGGSLRLSCTASGLTFNDYAVSWLRQAPGKEREFVATIRGSGGVTNYGASAEGRFIISRENAENTVYLQMNSLKSEDTAVYYCNARPLFGWSEEYWGQGTQVTVSSDIQNPEPAVYQLKDPRSQDSTLCLFTDFDSQINVPKTMESGTFITDKCVLDMKAMDSKSNGAIAWSNQTSFTCQDIFKETNATYPSSDVPCDATLTEKSFETDMNLNFQNLLVIVLRILLLKVAGFNLLMTLRLWSSRRDQRLPPDAHKPPGGGSFRTPIQEEQADAHSTLAKI
# B4: NCLD04β-NCR802α STAR-mbIL-15 (protein)
# beta: B2 beta
# alpha: B2 alpha
# B5: NCR802β-NCLD04α STAR-mbIL-15 (protein)
# beta: B3 beta
# alpha: B3 alpha
# Molecular target: T1, Claudin18.2 protein (UniProt P56856)
# T1 sequence (looked up): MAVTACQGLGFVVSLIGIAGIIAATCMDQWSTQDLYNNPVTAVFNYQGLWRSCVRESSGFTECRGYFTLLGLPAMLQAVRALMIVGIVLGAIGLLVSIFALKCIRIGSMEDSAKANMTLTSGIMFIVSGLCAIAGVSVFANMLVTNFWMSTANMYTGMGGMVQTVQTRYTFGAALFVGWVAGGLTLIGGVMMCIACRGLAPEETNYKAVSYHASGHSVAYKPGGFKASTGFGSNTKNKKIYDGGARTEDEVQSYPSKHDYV
# Experiment: flow cytometry, STAR-expressing T cells stained with Claudin18.2 protein
row,Binder,binding
1,B1,binds
2,B2,binds
3,B3,binds
4,B4,binds
5,B5,binds
